According to PubChem BioAssay AID1487 (National Center for Advancing Translational Sciences (NCATS), 2009):
Some of the results follow. Further columns of the screen follow, without active or inactive calls. Compounds called inactive in the main read-out are mostly missing here. Potencies come from curve fits of mixed quality, noted in brackets.

Assay: qHTS Assay for Modulators of Lamin A Splicing
Details: HeLa LMNA splicing GFP/RFP minigene ratio, 48 h
Outline: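 Read-out is the ratio of GFP to DsRed2 object intensity, acquired by 488 nm laser-scanning cytometry on HeLa lamin A-EGFP minigene reporter cells. Compound incubation 48 hrs at 37 °C in Opti-MEM with 2% FBS; DMSO 0.5% final.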

[1] = measured here: GFP splicing reporter channel
[2] = measured here: RFP viability control channel

SMILES | AC50 [1] | AC50 [2]
Cc1ccc(P(=O)(O)c2ccc(C)cc2)cc1 | 0.794 µM [falling, full curve, poor fit] | 1 µM [falling, full curve, poor fit]
COc1ccc(C(O)c2cc(OC)ccc2OP(=O)(N(C)C)N(C)C)cc1 (stereo not given) |  | 0.398 µM [falling, full curve]
COc1ccc(O)c(CN2CCCC(C(=O)c3ccccc3SC)C2)c1 (stereo not given) | 3.55 µM [falling, partial curve, poor fit] | 
CC(Oc1ccc(Cl)cc1Cl)C(=O)Nc1ccc(S(=O)(=O)Nc2cnc3ccccc3n2)cc1 (stereo not given) | 15.8 µM [rising, single point] | 35.5 µM [rising, single point]
C#CCN1CC(=O)N(COC(=O)[C@@H]2[C@@H](C=C(C)C)C2(C)C)C1=O | 0.00398 µM [falling, full curve, poor fit] | 0.447 µM [falling, full curve, poor fit]
CC(C)N(CCC(C(N)=O)(c1ccccc1)c1ccccn1)C(C)C (stereo not given) | 0.00501 µM [falling, full curve, poor fit] | 
O=C1NC(=O)C(CCc2ccncc2)(Cc2cccc(Cl)c2Cl)C(=O)N1c1ccc(Br)cc1 (stereo not given) | 35.5 µM [falling, single point] | 14.1 µM [falling, single point]
COC(=O)/C(C)=C\CC12OC(C)(C)C3CC(C=C4C(=O)c5c(OC)c6c(c(CC=C(C)C)c5OC431)OC(C)(CCC=C(C)C)C=C6)C2=O (stereo not given) | 1.41 µM [falling, full curve] | 0.891 µM [falling, full curve]
Cc1[nH]c2ccccc2c1CCCNC1CCCCC1 |  | 35.5 µM [rising, single point]
Nc1ccc2c(c1)Cc1ccccc1-2 |  | 0.2 µM [rising, full curve, poor fit]
COc1cc2c(cc1OC)-c1c(OC)c(OC)c(OC)c3ccnc(c13)C2=O |  | 11.2 µM [rising, partial curve]
COc1cc2c(cc1OC)[C@@]13CCN4CC5=CCOC6CC(=O)N2C1[C@H]6[C@@H]5C[C@@H]43 (stereo not given in full) |  | 35.5 µM [falling, single point]
Cc1csc(NC(=O)C2CCCN(S(=O)(=O)c3ccc4c(c3)oc(=O)n4C)C2)n1 (stereo not given) |  | 11.2 µM [rising, partial curve]
CN(C(=O)CN1CC=C(c2ccccc2)CC1)c1c(N)n(Cc2ccccc2)c(=O)[nH]c1=O |  | 5.62 µM [rising, single point]
COc1ccc(CN2C(=O)NC(=O)/C(=C\c3ccco3)C2=O)cc1 |  | 25.1 µM [rising, partial curve, poor fit]
CCOc1ccc(OCC)c(NC(=O)CN2CCN(c3ccc(C)cc3C)CC2)c1 |  | 14.1 µM [rising, partial curve]
C[C@H](N)[C@H](O)c1ccc(O)c(O)c1 | 0.316 µM [falling, single point] | 0.251 µM [falling, single point]
CCc1ccc(CNCCc2ccc(F)cc2)cc1 | 6.31 µM [rising, single point] | 
COc1ccc(-c2nnc3sc(C4CCCCC4)nn23)cc1OC |  | 35.5 µM [rising, single point]
C=CCO[C@@H](Cn1ccnc1)c1ccc(Cl)cc1Cl | 14.1 µM [falling, single point] | 14.1 µM [falling, single point]
COc1cc(/C=C/[N+](=O)[O-])ccc1O |  | 35.5 µM [rising, single point]
CCCCCCC[n+]1ccc(-c2cc[n+](CCCCCCC)cc2)cc1 | 17.8 µM [rising, partial curve] | 14.1 µM [rising, partial curve]
CC(C)n1c(/C=C/[C@H](O)C[C@H](O)CC(=O)O)c(-c2ccc(F)cc2)c2ccccc21 | 0.355 µM [rising, full curve, poor fit] | 
O=c1c2ccccc2nc(-c2ccoc2)n1-c1ccccc1Cl |  | 14.1 µM [rising, single point]
C[C@]12CC[C@@H](O)C[C@@H]1CC[C@@H]1[C@@H]2CC[C@]2(C)[C@@H](O)CC[C@@H]12 | 17.8 µM [rising, single point] | 25.1 µM [falling, partial curve]
O=c1c2ccccc2nc(/C=C/c2ccccc2)n1-c1ccccc1F |  | 2.82 µM [rising, full curve, poor fit]
Cc1[nH]n(-c2ccccc2)c(=O)c1C(c1ccc([N+](=O)[O-])cc1)c1c(C)[nH]n(-c2ccccc2)c1=O |  | 7.08 µM [rising, partial curve]
O=c1[nH]c(=O)n(CCC2=CCCCC2)c(O)c1C=NCCCn1ccnc1 |  | 0.282 µM [rising, full curve, poor fit]

Full records from above.
Nc1ccc2c(c1)Cc1ccccc1-2 is listed as AC50 [2]: 0.2 µM [rising, full curve, poor fit]
COc1cc2c(cc1OC)-c1c(OC)c(OC)c(OC)c3ccnc(c13)C2=O is listed as AC50 [2]: 11.2 µM [rising, partial curve]
COc1cc(/C=C/[N+](=O)[O-])ccc1O is listed as AC50 [2]: 35.5 µM [rising, single point]

Remaining list, next part

SMILES | AC50 [1] | AC50 [2]
CN1CCN(c2cccc3c2C(=O)c2ccccc2C3=O)CC1 |  | 12.6 µM [rising, partial curve, poor fit]
CCCCn1c(NC(=O)c2ccco2)c(C(=O)OCC)c2nc3ccccc3nc21 |  | 12.6 µM [falling, partial curve, poor fit]
COc1cc(C(CN)CC(=O)O)ccc1O (stereo not given) | 0.0141 µM [rising, full curve, poor fit] | 
Cc1ccccc1N1CCN(S(=O)(=O)c2nnc(NC(=O)c3ccc(Cl)cc3)s2)CC1 |  | 0.0126 µM [falling, full curve, poor fit]
O=C(O)c1ccccc1SCC(=O)N1c2ccccc2Sc2ccccc21 |  | 35.5 µM [rising, single point]
OC1CCCCC1N1CCC(c2ccccc2)CC1 (stereo not given) | 0.158 µM [rising, full curve] | 
CCCCCCCCCC[Si](C)(C)CCC(=O)NC(Cc1ccc(C)cc1)c1ccccc1 (stereo not given) |  | 0.000891 µM [falling, full curve, poor fit]
CCCCc1nc2ccccc2c(=O)n1-c1ccc(O)cc1 |  | 35.5 µM [rising, single point]
O=C(c1ccc2c(c1)ncn2C1CCCCC1)N1CCC2(CC1)OCCO2 | 0.0316 µM [falling, single point] | 
NCCc1ccc(S(=O)(=O)F)cc1 | 17.8 µM [rising, single point] | 6.31 µM [falling, partial curve, poor fit]
O=C(c1cc(F)ccc1F)C1CCCN(Cc2ccc3nonc3c2)C1 (stereo not given) | 0.126 µM [falling, full curve, poor fit] | 
CCN(CC)S(=O)(=O)c1ccc(NN=C(C#N)C#N)cc1 | 14.1 µM [rising, single point] | 31.6 µM [rising, single point]
Cc1ccccc1-n1c(C)nc2ccccc2c1=O | 1.26 µM [falling, partial curve] | 0.316 µM [falling, partial curve]
Cc1ccc(Cn2c(C)c3cnn(CC(=O)N4CCC5(CC4)OCCO5)c(=O)c3c2C)cc1 |  | 11.2 µM [rising, partial curve]
CCC(=NCCc1c[nH]c2ccccc12)c1c(O)n(-c2ccc(C)cc2)c(=O)[nH]c1=O | 2.82 µM [rising, partial curve, poor fit] | 20 µM [rising, partial curve]
O=Cc1cn(Cc2cccc([N+](=O)[O-])c2)c2ccccc12 | 31.6 µM [rising, single point] | 35.5 µM [rising, single point]
CCC(C)NC(=O)c1c(N)n(Cc2ccc3c(c2)OCO3)c2nc3ccccc3nc12 (stereo not given) |  | 11.2 µM [rising, partial curve]
CN[C@@H]1C[C@@H](c2ccc(Cl)c(Cl)c2)c2ccccc21 | 11.2 µM [falling, partial curve] | 11.2 µM [falling, partial curve]
Cc1ccccc1OP(N)(=O)Oc1ccccc1C | 22.4 µM [falling, single point] | 
COc1ccccc1NC(=O)N(Cc1ccc2c(c1)OCO2)C1CCN(Cc2ccccc2)CC1 | 7.94 µM [falling, partial curve] | 7.08 µM [falling, partial curve]
CCN1C[C@]2(COC)CC[C@H](O)[C@@]34[C@@H]5C[C@H]6[C@@H](OC)[C@H]5[C@](O)(C[C@@H]6OC)[C@@](O)([C@@H](OC)[C@H]23)[C@@H]14 | 3.16 µM [falling, single point] | 1.78 µM [falling, single point]
CCOc1ccc(-c2cc(C(=O)N3CCN(c4cccc(C(F)(F)F)c4)CC3)c3ccccc3n2)cc1 |  | 20 µM [rising, single point]
O=C1/C(=C\c2ccc([N+](=O)[O-])cc2)N2CCC1CC2 | 11.2 µM [rising, partial curve] | 11.2 µM [rising, partial curve]
CCCCOc1ccc(CNC(=O)c2cc3n(n2)CCCN(Cc2ccc(C)cc2)C3=O)cc1 |  | 14.1 µM [rising, partial curve]
CNCC[C@@H](Oc1ccc(C(F)(F)F)cc1)c1ccccc1 | 15.8 µM [falling, partial curve] | 25.1 µM [falling, partial curve, poor fit]
c1cc2c(cc1CCNC1C3CC4CC(C3)CC1C4)OCO2 (stereo not given) |  | 35.5 µM [rising, single point]
Cc1ccc(-c2nc3ccc(C)cn3c2CC(=O)N(C)C)cc1 | 5.62 µM [rising, single point] | 5.62 µM [rising, single point]
